According to patent US5236815A, “Class of masked stabilizers in photographic materials or developing solutions” (priority 1991, dated 1993):

Test: Sensitometry and screen dot quality after development in Rapid Access developer containing the compound (Example 2, Table 1)
Settings: 0.46 mmole/l in developer; for dot rating (screen dot quality): arbitrary 0 (best) to 5, increasing = degrading quality, above 3 not commercially acceptable; for gv (gradient in the toe of the sensitometric curve): between densities 0.1 and 0.6 above fog; for g (straight line gradient): between densities 0.3 and 3.0 above fog; for rel. S (photographic speed, relative arithmetic values): measured at density 3.00 above fog, comparison sample 1 (5-NI) = 100

For `O=[N+]([O-])c1ccc2[nH]ncc2c1` [5-nitroindazole], the “dot rating (screen dot quality)” value was 2-3, the “gv (gradient in the toe of the sensitometric curve)” value was 4.3 and the “g (straight line gradient)” value was 12.8. For the same molecule, the “rel. S (photographic speed, relative arithmetic values)” value was 100.
With `O=C(c1ccccc1S(=O)(=O)O)n1ncc2cc([N+](=O)[O-])ccc21` [Compound I-5] the “dot rating (screen dot quality)” value was 1-2, the “gv (gradient in the toe of the sensitometric curve)” value was 5.7 and the “g (straight line gradient)” value was 16.0. The “rel. S (photographic speed, relative arithmetic values)” value was 112.
